Publication PMC10618185
No constants are given. Whether binding was seen depends on the method and setting. Binding seen in cells or lysates may run through a third protein. Some entries that bind do so weakly or less than the wild type. Sequences can lack the tags named with a protein.

The chains behind the UniProt entries cited, without tags or fusion partners. Where a name states a change or a piece, a line headed by the entry shows the natural chain unless it says otherwise.
UniProt Q9P253: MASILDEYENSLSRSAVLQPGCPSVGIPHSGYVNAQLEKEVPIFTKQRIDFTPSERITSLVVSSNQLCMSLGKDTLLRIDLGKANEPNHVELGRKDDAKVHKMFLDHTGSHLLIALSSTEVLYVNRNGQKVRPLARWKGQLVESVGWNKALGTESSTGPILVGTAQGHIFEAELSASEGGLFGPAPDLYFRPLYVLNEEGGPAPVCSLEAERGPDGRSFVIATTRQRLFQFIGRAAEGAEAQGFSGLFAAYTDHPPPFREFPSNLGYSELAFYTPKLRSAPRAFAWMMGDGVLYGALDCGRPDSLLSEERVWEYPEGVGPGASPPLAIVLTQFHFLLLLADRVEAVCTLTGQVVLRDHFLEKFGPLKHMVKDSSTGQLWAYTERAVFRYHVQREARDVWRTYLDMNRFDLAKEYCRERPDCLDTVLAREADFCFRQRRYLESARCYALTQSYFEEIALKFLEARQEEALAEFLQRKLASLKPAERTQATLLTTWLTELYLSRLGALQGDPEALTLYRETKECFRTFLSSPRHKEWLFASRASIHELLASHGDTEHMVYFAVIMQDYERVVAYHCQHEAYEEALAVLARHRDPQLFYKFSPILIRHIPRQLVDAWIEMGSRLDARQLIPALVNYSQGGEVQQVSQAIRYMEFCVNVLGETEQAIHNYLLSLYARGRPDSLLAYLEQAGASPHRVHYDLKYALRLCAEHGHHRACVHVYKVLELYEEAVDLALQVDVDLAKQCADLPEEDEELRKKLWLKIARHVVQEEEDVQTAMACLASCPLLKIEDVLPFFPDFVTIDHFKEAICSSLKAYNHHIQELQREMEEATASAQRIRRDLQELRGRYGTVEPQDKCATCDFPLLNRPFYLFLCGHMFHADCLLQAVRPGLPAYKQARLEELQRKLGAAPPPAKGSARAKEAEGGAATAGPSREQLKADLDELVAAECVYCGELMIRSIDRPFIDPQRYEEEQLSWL

Columns and labels:
[1] = target: T1, Myc-VPS41 (human (cDNA from HeLa Kyoto cells)) (UniProt P49754); experiment: co-IP; HeLa cells stably expressing V5-VPS16, transiently co-transfected with Myc-VPS41 or Myc-VPS8, His-VPS18, FLAG-VPS11 and HA-VPS39 or HA-VPS3; cells homogenised in PBS with protease inhibitors; IP with anti-Myc antibody and Protein G magnetic beads, 4 °C overnight; blots with anti-tag antibodies
T1 sequence: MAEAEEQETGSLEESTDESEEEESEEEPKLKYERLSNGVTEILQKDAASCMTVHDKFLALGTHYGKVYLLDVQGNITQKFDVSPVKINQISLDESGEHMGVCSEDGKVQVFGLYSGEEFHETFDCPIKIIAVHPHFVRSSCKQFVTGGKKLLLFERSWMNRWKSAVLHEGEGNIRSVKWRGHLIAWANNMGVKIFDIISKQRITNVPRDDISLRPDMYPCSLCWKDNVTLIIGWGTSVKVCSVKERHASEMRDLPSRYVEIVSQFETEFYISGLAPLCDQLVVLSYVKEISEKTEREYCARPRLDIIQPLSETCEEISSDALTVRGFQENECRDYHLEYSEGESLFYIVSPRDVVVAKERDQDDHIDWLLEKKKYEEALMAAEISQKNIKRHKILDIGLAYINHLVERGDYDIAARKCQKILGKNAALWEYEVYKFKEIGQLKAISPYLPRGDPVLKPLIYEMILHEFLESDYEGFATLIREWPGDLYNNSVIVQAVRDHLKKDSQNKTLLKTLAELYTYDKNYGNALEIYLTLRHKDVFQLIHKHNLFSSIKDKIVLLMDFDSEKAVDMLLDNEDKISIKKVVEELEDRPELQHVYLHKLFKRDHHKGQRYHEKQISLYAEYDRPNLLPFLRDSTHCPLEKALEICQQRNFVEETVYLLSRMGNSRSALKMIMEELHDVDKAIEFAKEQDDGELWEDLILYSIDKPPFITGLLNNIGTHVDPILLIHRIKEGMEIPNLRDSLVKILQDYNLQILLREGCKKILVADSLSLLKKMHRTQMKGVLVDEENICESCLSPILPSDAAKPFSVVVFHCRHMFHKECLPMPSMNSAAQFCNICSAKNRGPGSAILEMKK

[2] = target: T2, Myc-VPS8 (human (cDNA from HeLa Kyoto cells)) (UniProt Q8N3P4); experiment: as above
T2 sequence: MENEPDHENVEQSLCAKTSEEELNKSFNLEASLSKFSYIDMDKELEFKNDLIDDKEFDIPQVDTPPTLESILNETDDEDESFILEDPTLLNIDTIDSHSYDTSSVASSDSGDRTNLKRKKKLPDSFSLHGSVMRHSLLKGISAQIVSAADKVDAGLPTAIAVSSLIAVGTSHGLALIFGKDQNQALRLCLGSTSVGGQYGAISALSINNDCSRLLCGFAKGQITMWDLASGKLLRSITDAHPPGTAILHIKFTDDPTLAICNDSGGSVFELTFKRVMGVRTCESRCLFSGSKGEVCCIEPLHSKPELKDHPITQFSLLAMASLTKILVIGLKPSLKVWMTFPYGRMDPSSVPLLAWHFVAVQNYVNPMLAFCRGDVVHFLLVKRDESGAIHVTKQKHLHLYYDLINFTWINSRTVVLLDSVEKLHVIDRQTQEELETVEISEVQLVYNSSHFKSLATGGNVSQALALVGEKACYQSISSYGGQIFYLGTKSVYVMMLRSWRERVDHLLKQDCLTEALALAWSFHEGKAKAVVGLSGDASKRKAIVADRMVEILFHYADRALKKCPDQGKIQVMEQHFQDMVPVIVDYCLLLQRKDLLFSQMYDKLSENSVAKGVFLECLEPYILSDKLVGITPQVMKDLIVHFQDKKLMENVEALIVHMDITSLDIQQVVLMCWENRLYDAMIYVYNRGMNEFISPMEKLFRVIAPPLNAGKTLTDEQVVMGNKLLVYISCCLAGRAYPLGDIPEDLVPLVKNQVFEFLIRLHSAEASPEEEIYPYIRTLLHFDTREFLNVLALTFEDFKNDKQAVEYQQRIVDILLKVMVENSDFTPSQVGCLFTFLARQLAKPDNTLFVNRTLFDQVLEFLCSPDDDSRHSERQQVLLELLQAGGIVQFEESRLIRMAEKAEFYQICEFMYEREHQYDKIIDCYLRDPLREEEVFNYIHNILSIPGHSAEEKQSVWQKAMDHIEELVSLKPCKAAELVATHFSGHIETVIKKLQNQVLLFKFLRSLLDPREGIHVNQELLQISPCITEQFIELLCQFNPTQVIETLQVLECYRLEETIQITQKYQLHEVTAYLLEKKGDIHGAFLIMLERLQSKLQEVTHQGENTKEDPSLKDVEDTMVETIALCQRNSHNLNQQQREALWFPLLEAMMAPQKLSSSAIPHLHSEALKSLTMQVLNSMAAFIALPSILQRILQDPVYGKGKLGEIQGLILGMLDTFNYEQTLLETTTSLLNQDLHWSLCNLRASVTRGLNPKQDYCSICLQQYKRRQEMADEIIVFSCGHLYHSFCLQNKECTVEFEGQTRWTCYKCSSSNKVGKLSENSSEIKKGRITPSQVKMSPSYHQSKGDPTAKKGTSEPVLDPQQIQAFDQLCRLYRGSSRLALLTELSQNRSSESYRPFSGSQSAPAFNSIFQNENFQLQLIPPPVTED

[3] = target: T3, HA-VPS3 (human (cDNA from HeLa Kyoto cells)) (UniProt Q8WUH2); experiment: co-IP; WT HeLa cells with single expression of Myc-VPS41, Myc-VPS8, HA-VPS39 or HA-VPS3; lysate in PBS; IP with anti-Myc or anti-HA antibody and Protein G magnetic beads; endogenous partners detected by western blotting
T3 sequence: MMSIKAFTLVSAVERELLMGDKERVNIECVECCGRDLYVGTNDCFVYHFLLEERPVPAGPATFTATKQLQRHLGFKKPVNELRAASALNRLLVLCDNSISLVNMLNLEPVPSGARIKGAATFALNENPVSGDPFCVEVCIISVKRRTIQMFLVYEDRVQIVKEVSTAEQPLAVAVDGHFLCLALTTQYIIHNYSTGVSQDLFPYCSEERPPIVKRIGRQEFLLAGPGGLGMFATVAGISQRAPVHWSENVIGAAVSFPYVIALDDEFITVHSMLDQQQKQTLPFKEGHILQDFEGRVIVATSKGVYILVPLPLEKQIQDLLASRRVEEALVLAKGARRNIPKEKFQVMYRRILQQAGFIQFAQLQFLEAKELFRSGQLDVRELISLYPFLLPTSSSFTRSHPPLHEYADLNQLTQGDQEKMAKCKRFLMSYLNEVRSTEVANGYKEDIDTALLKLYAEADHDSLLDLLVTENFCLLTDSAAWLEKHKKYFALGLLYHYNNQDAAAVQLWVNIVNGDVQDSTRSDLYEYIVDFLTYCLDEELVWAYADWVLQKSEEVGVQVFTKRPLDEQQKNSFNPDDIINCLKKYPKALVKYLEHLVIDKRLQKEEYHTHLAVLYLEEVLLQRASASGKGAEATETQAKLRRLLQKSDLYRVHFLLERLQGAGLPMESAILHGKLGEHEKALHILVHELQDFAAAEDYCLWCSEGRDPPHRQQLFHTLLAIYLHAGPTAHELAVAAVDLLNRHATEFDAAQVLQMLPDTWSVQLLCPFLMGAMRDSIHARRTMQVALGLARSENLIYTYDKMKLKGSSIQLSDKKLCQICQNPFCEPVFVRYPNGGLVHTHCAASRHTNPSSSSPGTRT

class C core (His-VPS18, FLAG-VPS11, V5-VPS16, VPS33A), exogenously expressed subunits (from UniProt Q9P253 1-973; Q9H270 1-941; Q9H269 1-839; Q96AX1 1-596) (complex)
binding [1]: binds
binding [2]: binds

B1: endogenous VPS8 (protein, UniProt Q8N3P4 1-1428)
chain: T2 sequence
binding [3]: binds

B2: HA-VPS3 (protein, UniProt Q8WUH2 1-860)
chain: T3 sequence
binding [2]: binds
